For 1 sequence, binding signal results are on record in publication PMC5996148.

This is one part of the list.

Test systems include NPL (human); NPPA (human); NPY (human); NQO2 (human); NRARP (human); NRBF2 (human); NSUN3 (human); NT5C3L (human); NT5DC1 (human); NTS (human).
Assay in all cases: protein microarray (ProtoArray v5.0), streptavidin-Alexa Fluor 647
Common to all, as to conditions: 3'-biotin; 20 mM Tris (pH 7.5), 5 mM MgCl2, 100 mM KCl, 0.1% Tween-20, A/T-rich and random oligonucleotide blockers; temperature not stated; high values mean tight binding

Consider “GGGAGGCTGAGGCAGG [G4-1 biotinylated (PQS2)]”, for which the binding signal in the assay on NPL (human) is -0.343 z-score; with NPPA (human) it was -0.284 z-score; in the assay on NPY (human), -0.316 z-score; with NQO2 (human), -0.296 z-score; in the assay with NRARP (human) it was -0.348 z-score; in the assay on NRBF2 (human), -0.354 z-score. Further, the binding signal with NSUN3 (human) was -0.277 z-score; in the assay with NT5C3L (human), -0.331 z-score; with NT5DC1 (human) it was -0.262 z-score; with NTS (human), -0.346 z-score.
